Drawing on article PMC11446459, this text covers binding for one substance.

These are yes or no findings as the source states them, for the method shown. For part of these data: A result given as binding can be weak or reduced; the word gives no strength. Sequences can lack the tags named with a protein.

Holding throughout (experiment): two-hybrid; Gal4 system (Matchmaker Gold); C1-FDX, ACP1, ACP2 in pGADT7, CI and CV subunits in pGBKT7; yeast AH109; growth on SD/-Trp/-Leu/-His/-Ade/+ x-α-gal for 4 days at 30°C
Experiment [1] addresses T1, γ subunit of the F1 module of complex V, Gal4 DNA-binding domain fusion (Arabidopsis) (UniProt Q96250).
T1 sequence: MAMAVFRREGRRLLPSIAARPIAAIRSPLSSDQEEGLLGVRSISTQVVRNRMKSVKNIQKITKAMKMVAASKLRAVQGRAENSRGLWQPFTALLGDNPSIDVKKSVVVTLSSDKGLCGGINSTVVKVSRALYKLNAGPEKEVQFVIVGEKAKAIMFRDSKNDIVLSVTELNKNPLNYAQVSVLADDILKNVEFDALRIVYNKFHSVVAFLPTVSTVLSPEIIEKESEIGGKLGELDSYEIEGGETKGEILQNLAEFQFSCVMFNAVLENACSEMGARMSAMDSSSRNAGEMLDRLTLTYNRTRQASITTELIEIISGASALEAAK

Experiment [2] has as its target T2, OSCP (oligomycin sensitivity-conferring protein) subunit of complex V, Gal4 DNA-binding domain fusion (Arabidopsis) (UniProt Q96251).
T2 sequence: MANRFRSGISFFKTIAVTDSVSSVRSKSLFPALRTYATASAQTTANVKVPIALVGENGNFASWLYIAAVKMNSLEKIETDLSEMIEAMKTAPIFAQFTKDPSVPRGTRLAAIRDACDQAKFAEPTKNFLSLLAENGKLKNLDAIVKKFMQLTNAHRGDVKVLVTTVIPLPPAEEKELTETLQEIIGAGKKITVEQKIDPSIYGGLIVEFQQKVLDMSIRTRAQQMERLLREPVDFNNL

Experiment [3] has as its target T3, ε subunit of the F1 module of complex V, Gal4 DNA-binding domain fusion (Arabidopsis) (UniProt Q96253).
T3 sequence: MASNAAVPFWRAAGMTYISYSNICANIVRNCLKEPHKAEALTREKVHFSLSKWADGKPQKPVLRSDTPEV

For experiment [4], the target named is T4, ACP2, Gal4 DNA-binding domain fusion (Arabidopsis) (UniProt O80800).
T4 sequence: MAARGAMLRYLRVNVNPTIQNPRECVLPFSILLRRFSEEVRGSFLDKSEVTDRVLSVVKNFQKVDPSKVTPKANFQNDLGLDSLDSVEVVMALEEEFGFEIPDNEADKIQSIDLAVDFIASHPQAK

Experiment [5] deals with T5, CA3, CA module subunit of complex I, Gal4 DNA-binding domain fusion (Arabidopsis) (UniProt Q94AU7).
T5 sequence: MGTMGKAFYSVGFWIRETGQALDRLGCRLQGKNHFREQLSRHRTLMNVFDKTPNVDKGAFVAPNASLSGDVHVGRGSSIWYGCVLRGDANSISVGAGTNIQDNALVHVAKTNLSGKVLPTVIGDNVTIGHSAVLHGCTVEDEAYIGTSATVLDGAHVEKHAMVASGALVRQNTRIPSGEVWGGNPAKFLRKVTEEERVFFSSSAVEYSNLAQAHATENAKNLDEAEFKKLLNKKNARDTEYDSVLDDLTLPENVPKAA

The target in experiment [6] is T6, B9, PD module subunit of complex I, Gal4 DNA-binding domain fusion (Arabidopsis) (UniProt Q945M1).
T6 sequence: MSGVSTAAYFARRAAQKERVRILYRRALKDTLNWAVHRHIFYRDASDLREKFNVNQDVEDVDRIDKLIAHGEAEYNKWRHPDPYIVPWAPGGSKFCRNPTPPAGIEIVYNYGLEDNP

Regarding “C1-FDX (Complex I-ferredoxin), Gal4 activation domain fusion (Arabidopsis)”, the binding entry is given as “binds” in experiment [1]; “no binding” in experiment [2]; “binds” in experiment [3]; “binds” in experiment [4]; “binds” in experiment [5]; “binds” in experiment [6].
